In the supplement of paper PMC8728848:
This is one part of the list.

Tests used:
Assay in all cases: glycan array binding signal (z-score within array); higher = stronger binding
Details in all cases: glycan notation: IUPAC condensed, linker removed
[1] = tested on: Fuc(a1-2)Gal(b1-3)GalNAc(a1-3)[Fuc(a1-2)]Gal(b1-4)GlcNAc
In short: (§1)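 Arrays were curated from the Consortium for Functional Glycomics database, 3228 in total, and kept only where the protein sequence was available. Binding is expressed as a within-array Z-score. This score was averaged across arrays of the same protein sequence at different concentrations or buffers and across linkers, and negative values can be read as non-binding.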

[2] = tested on: Fuc(a1-2)Gal(b1-3)GalNAc(a1-3)[Fuc(a1-2)]Gal(b1-4)Glc
In short: as §1

[3] = tested on: Fuc(a1-2)Gal(b1-3)GalNAc(b1-3)Gal(a1-4)Gal(b1-4)Glc
In short: as §1

[4] = tested on: Fuc(a1-2)Gal(b1-3)GalNAc(b1-3)Gal
In short: as §1

[5] = tested on: Fuc(a1-2)Gal(b1-3)GalNAc(b1-4)[Neu5Ac(a2-3)]Gal(b1-4)Glc
In short: as §1

[6] = tested on: Fuc(a1-2)Gal(b1-3)GalNAc
In short: as §1

[7] = tested on: Fuc(a1-2)Gal(b1-3)GlcNAc(b1-2)Man(a1-3)[Fuc(a1-2)Gal(b1-3)GlcNAc(b1-2)Man(a1-6)]Man(b1-4)GlcNAc(b1-4)GlcNAc
In short: as §1

[8] = tested on: Fuc(a1-2)Gal(b1-3)GlcNAc(b1-2)Man(a1-3)[Fuc(a1-2)Gal(b1-3)GlcNAc(b1-2)Man(a1-6)]Man(b1-4)GlcNAc(b1-4)[Fuc(a1-6)]GlcNAc
In short: as §1

[9] = tested on: Fuc(a1-2)Gal(b1-3)GlcNAc(b1-3)Gal(b1-4)Glc
In short: as §1

[10] = tested on: Fuc(a1-2)Gal(b1-3)GlcNAc(b1-3)GalNAc
In short: as §1

[11] = tested on: Fuc(a1-2)Gal(b1-3)GlcNAc(b1-3)[Fuc(a1-2)Gal(b1-3)GlcNAc(b1-6)]GalNAc
In short: as §1

[12] = tested on: Fuc(a1-2)Gal(b1-3)GlcNAc(b1-3)[Fuc(a1-3)[Gal(b1-4)]GlcNAc(b1-6)]Gal(b1-4)Glc
In short: as §1

[13] = tested on: Fuc(a1-2)Gal(b1-3)GlcNAc(b1-3)[Gal(b1-4)GlcNAc(b1-6)]Gal(b1-4)Glc
In short: as §1

[14] = tested on: Fuc(a1-2)Gal(b1-3)GlcNAc(b1-3)[Neu5Ac(a2-6)Gal(b1-4)GlcNAc(b1-6)]Gal(b1-4)Glc
In short: as §1

[15] = tested on: Fuc(a1-2)Gal(b1-3)GlcNAc6S
In short: as §1

[16] = tested on: Fuc(a1-2)Gal(b1-3)GlcNAc
In short: as §1

[17] = tested on: Fuc(a1-2)Gal(b1-3)[Fuc(a1-4)]GlcNAc(b1-2)Man(a1-3)[Fuc(a1-2)Gal(b1-3)[Fuc(a1-4)]GlcNAc(b1-2)Man(a1-6)]Man(b1-4)GlcNAc(b1-4)GlcNAc
In short: as §1

[18] = tested on: Fuc(a1-2)Gal(b1-3)[Fuc(a1-4)]GlcNAc(b1-2)Man(a1-6)[Fuc(a1-2)Gal(b1-3)[Fuc(a1-4)]GlcNAc(b1-2)Man(a1-3)]Man(b1-4)GlcNAc(b1-4)[Fuc(a1-6)]GlcNAc
In short: as §1

[19] = tested on: Fuc(a1-2)Gal(b1-3)[Fuc(a1-4)]GlcNAc(b1-3)[Fuc(a1-3)[Gal(b1-4)]GlcNAc(b1-6)]Gal(b1-4)Glc
In short: as §1

[20] = tested on: Fuc(a1-2)Gal(b1-3)[Fuc(a1-4)]GlcNAc(b1-3)[Gal(b1-4)GlcNAc(b1-6)]Gal(b1-4)Glc
In short: as §1

[21] = tested on: Fuc(a1-2)Gal(b1-3)[Fuc(a1-4)]GlcNAc
In short: as §1

[22] = tested on: Fuc(a1-2)Gal(b1-4)Glc6S
In short: as §1

[23] = tested on: Fuc(a1-2)Gal(b1-4)GlcNAc(b1-2)Man(a1-3)[Fuc(a1-2)Gal(b1-4)GlcNAc(b1-2)Man(a1-6)]Man(b1-4)GlcNAc(b1-4)GlcNAc
In short: as §1

[24] = tested on: Fuc(a1-2)Gal(b1-4)GlcNAc(b1-2)Man(a1-3)[Fuc(a1-2)Gal(b1-4)GlcNAc(b1-2)Man(a1-6)]Man(b1-4)GlcNAc(b1-4)[Fuc(a1-6)]GlcNAc
In short: as §1

[25] = tested on: Fuc(a1-2)Gal(b1-4)GlcNAc(b1-2)Man
In short: as §1

[26] = tested on: Fuc(a1-2)Gal(b1-4)GlcNAc(b1-2)[Fuc(a1-2)Gal(b1-4)GlcNAc(b1-4)]Man(a1-3)[Fuc(a1-2)Gal(b1-4)GlcNAc(b1-2)Man(a1-6)]Man(b1-4)GlcNAc(b1-4)GlcNAc
In short: as §1

[27] = tested on: Fuc(a1-2)Gal(b1-4)GlcNAc(b1-3)Gal(b1-4)GlcNAc(b1-3)Gal(b1-4)GlcNAc
In short: as §1

[28] = tested on: Fuc(a1-2)Gal(b1-4)GlcNAc(b1-3)Gal(b1-4)GlcNAc
In short: as §1

[29] = tested on: Fuc(a1-2)Gal(b1-4)GlcNAc(b1-3)GalNAc
In short: as §1

[30] = tested on: Fuc(a1-2)Gal(b1-4)GlcNAc(b1-3)[Fuc(a1-2)Gal(b1-4)GlcNAc(b1-6)]GalNAc
In short: as §1

[31] = tested on: Fuc(a1-2)Gal(b1-4)GlcNAc(b1-6)GalNAc
In short: as §1

[32] = tested on: Fuc(a1-2)Gal(b1-4)GlcNAc6S
In short: as §1

[33] = tested on: Fuc(a1-2)Gal(b1-4)GlcNAc
In short: as §1

[34] = tested on: Fuc(a1-2)Gal(b1-4)Glc
In short: as §1

[35] = tested on: Fuc(a1-2)Gal(b1-4)[Fuc(a1-3)]GlcNAc(b1-2)Man(a1-3)[Fuc(a1-2)Gal(b1-4)[Fuc(a1-3)]GlcNAc(b1-2)Man(a1-6)]Man(b1-4)GlcNAc(b1-4)GlcNAc
In short: as §1

[36] = tested on: Fuc(a1-2)Gal(b1-4)[Fuc(a1-3)]GlcNAc(b1-2)Man(a1-6)[Fuc(a1-2)Gal(b1-4)[Fuc(a1-3)]GlcNAc(b1-2)Man(a1-3)]Man(b1-4)GlcNAc(b1-4)[Fuc(a1-6)]GlcNAc
In short: as §1

[37] = tested on: Fuc(a1-2)Gal(b1-4)[Fuc(a1-3)]GlcNAc(b1-2)[Fuc(a1-2)Gal(b1-4)[Fuc(a1-3)]GlcNAc(b1-4)]Man(a1-3)[Fuc(a1-2)Gal(b1-4)[Fuc(a1-3)]GlcNAc(b1-2)Man(a1-6)]Man(b1-4)GlcNAc(b1-4)GlcNAc
In short: as §1

[38] = tested on: Fuc(a1-2)Gal(b1-4)[Fuc(a1-3)]GlcNAc(b1-3)Gal(b1-4)[Fuc(a1-3)]GlcNAc(b1-3)Gal(b1-4)[Fuc(a1-3)]GlcNAc
In short: as §1

[39] = tested on: Fuc(a1-2)Gal(b1-4)[Fuc(a1-3)]GlcNAc(b1-3)Gal(b1-4)[Fuc(a1-3)]GlcNAc
In short: as §1

[40] = tested on: Fuc(a1-2)Gal(b1-4)[Fuc(a1-3)]GlcNAc(b1-3)GalNAc
In short: as §1

[41] = tested on: Fuc(a1-2)Gal(b1-4)[Fuc(a1-3)]GlcNAc(b1-3)[Neu5Ac(a2-6)Gal(b1-4)GlcNAc(b1-6)]Gal(b1-4)Glc
In short: as §1

[42] = tested on: Fuc(a1-2)Gal(b1-4)[Fuc(a1-3)]GlcNAc
In short: as §1

[43] = tested on: Fuc(a1-2)Gal6S(b1-3)GlcNAc6S
In short: as §1

[44] = tested on: Fuc(a1-2)Gal6S(b1-3)GlcNAc
In short: as §1

[45] = tested on: Fuc(a1-2)Gal6S(b1-4)Glc6S
In short: as §1

[46] = tested on: Fuc(a1-2)Gal6S(b1-4)GlcNAc
In short: as §1

[47] = tested on: Fuc(a1-2)Gal6S(b1-4)Glc
In short: as §1

[48] = tested on: Fuc(a1-2)Gal
In short: as §1

[49] = tested on: Fuc(a1-2)[Gal(a1-3)]Gal(b1-3)GalNAc
In short: as §1

[50] = tested on: Fuc(a1-2)[Gal(a1-3)]Gal(b1-3)GlcNAc(b1-2)Man(a1-3)[Fuc(a1-2)[Gal(a1-3)]Gal(b1-3)GlcNAc(b1-2)Man(a1-6)]Man(b1-4)GlcNAc(b1-4)GlcNAc
In short: as §1

[51] = tested on: Fuc(a1-2)[Gal(a1-3)]Gal(b1-3)GlcNAc(b1-2)Man(a1-3)[Fuc(a1-2)[Gal(a1-3)]Gal(b1-3)GlcNAc(b1-2)Man(a1-6)]Man(b1-4)GlcNAc(b1-4)[Fuc(a1-6)]GlcNAc
In short: as §1

With Wza (Escherichia coli), P0A930 the “glycan array binding signal (z-score)” value [1] was -0.564, the “glycan array binding signal (z-score)” value [2] was -0.261 and the “glycan array binding signal (z-score)” value [3] was -1.05. The “glycan array binding signal (z-score)” value [4] was -0.039, the “glycan array binding signal (z-score)” value [5] was 0.486 and the “glycan array binding signal (z-score)” value [6] was 0.144. The “glycan array binding signal (z-score)” value [7] was 1.43, the “glycan array binding signal (z-score)” value [8] was -1.24 and the “glycan array binding signal (z-score)” value [9] was 0.374. For the same substance, the “glycan array binding signal (z-score)” value [10] was 0.137, the “glycan array binding signal (z-score)” value [11] was 0.543 and the “glycan array binding signal (z-score)” value [12] was -0.65. The “glycan array binding signal (z-score)” value [13] was 0.121, the “glycan array binding signal (z-score)” value [14] was -0.521 and the “glycan array binding signal (z-score)” value [15] was -0.281. For the same substance, the “glycan array binding signal (z-score)” value [16] was 0.769, the “glycan array binding signal (z-score)” value [17] was 1.49 and the “glycan array binding signal (z-score)” value [18] was 1.21. For the same substance, the “glycan array binding signal (z-score)” value [19] was -0.515, the “glycan array binding signal (z-score)” value [20] was 0.314 and the “glycan array binding signal (z-score)” value [21] was -1.04. For the same substance, the “glycan array binding signal (z-score)” value [22] was -0.326, the “glycan array binding signal (z-score)” value [23] was 0.059 and the “glycan array binding signal (z-score)” value [24] was -0.368. For the same substance, the “glycan array binding signal (z-score)” value [25] was 0.94, the “glycan array binding signal (z-score)” value [26] was 0.441 and the “glycan array binding signal (z-score)” value [27] was -2.01. The “glycan array binding signal (z-score)” value [28] was -0.32, the “glycan array binding signal (z-score)” value [29] was -0.551 and the “glycan array binding signal (z-score)” value [30] was 0.214. For the same substance, the “glycan array binding signal (z-score)” value [31] was 0.01, the “glycan array binding signal (z-score)” value [32] was 1.03 and the “glycan array binding signal (z-score)” value [33] was -0.146. The “glycan array binding signal (z-score)” value [34] was 1.06, the “glycan array binding signal (z-score)” value [35] was 0.425 and the “glycan array binding signal (z-score)” value [36] was 0.281. The “glycan array binding signal (z-score)” value [37] was 1.08, the “glycan array binding signal (z-score)” value [38] was -0.725 and the “glycan array binding signal (z-score)” value [39] was -0.207. For the same substance, the “glycan array binding signal (z-score)” value [40] was 0.959, the “glycan array binding signal (z-score)” value [41] was 1.82 and the “glycan array binding signal (z-score)” value [42] was -0.629. The “glycan array binding signal (z-score)” value [43] was 0.429, the “glycan array binding signal (z-score)” value [44] was 1.29 and the “glycan array binding signal (z-score)” value [45] was 1.05. For the same substance, the “glycan array binding signal (z-score)” value [46] was 0.807, the “glycan array binding signal (z-score)” value [47] was 0.28 and the “glycan array binding signal (z-score)” value [48] was -0.106. The “glycan array binding signal (z-score)” value [49] was 0.911, the “glycan array binding signal (z-score)” value [50] was -0.383 and the “glycan array binding signal (z-score)” value [51] was 0.523.
